Measured values: PMC5155150
No constants are given. Whether binding was seen depends on the method and setting. In cells and extracts the contact can be indirect. Some entries that bind do so weakly or less than the wild type.

Sequences of proteins named here, by UniProt entry; tags and fusion partners are left off. Residues count along the entry.
UniProt P12830, residues 731-882: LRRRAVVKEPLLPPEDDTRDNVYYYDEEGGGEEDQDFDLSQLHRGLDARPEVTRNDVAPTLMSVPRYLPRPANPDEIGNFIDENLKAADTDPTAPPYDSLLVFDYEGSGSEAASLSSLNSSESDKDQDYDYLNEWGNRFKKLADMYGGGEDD
UniProt P35222: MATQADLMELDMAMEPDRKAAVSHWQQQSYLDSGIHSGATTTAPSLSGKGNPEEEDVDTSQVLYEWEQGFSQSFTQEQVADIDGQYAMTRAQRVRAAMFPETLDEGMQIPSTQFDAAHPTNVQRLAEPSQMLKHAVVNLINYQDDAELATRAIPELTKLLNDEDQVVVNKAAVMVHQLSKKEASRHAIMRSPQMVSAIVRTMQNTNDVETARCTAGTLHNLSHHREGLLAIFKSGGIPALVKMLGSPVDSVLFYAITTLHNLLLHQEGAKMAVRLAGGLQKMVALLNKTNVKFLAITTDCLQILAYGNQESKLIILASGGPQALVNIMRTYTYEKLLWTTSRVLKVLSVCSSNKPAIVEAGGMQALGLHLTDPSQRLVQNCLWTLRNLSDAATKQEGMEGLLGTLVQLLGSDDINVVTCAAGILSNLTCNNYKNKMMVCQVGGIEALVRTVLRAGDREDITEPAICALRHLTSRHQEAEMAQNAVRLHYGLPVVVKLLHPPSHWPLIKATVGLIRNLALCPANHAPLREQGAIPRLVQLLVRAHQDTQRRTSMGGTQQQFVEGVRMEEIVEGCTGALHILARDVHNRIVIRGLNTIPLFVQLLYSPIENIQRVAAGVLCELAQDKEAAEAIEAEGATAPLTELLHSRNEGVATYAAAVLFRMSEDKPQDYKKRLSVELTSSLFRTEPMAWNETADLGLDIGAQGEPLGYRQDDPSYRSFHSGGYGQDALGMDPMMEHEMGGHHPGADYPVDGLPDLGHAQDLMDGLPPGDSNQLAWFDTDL

Biological target: glutathione S-transferase-tagged cytosolic tail of E-cadherin (ECT) (UniProt P12830)
Assay: pull-down; bead array-based GST pull-down; GST fusion proteins as baits; native hPSC lysates (150 mM NaCl, 50 mM Tris pH 7.4, 1% Triton X-100) after 24 h of CHIR treatment at the four CHIR/volume conditions; only the target purified

binding: binds
Substance: β-catenin (from UniProt P35222 1-781)
